Test results from doi:10.1101/345264.
These are yes or no findings as the source states them, for the method shown. In cells and extracts the contact can be indirect. Some entries that bind do so weakly or less than the wild type.

Chains of the proteins cited; added tags and fusions are not shown.
UniProt P46938: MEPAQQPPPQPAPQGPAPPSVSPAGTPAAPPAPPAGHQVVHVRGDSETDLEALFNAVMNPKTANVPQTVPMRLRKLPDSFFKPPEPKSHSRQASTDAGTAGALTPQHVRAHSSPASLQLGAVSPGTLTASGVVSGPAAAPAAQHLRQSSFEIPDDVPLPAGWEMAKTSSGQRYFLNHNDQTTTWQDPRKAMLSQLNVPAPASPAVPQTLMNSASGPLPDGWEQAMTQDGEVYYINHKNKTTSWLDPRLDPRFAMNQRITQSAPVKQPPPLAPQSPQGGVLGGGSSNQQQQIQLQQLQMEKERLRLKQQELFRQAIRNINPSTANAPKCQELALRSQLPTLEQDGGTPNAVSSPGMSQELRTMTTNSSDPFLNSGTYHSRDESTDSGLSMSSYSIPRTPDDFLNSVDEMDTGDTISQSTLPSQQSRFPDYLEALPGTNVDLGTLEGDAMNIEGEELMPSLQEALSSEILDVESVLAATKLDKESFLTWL

Molecular target: Yap1 (Hippo pathway transcription co-activator) (mouse (endogenous in mouse brain)) (UniProt P46938)
Assay: co-IP

B1: Angiomotin (Amot) (protein, UniProt Q8VHG2 1-1126)
chain: MRSSDDQPSGGTTVLQRLLQEQLRYGNPSENRSLLAIHQQATGNSSPFSTGSGNQGPQNDVLSSQDHHQQQLVAHPARQEPQGQEIQSENGVMEKQLSPRMQNNEELPTYEEAKVQSQYFRGQQHASVGAAFYVTGVTNQKMRTEGRPSVQRLTPGKMHQDEGLRDLKQGHVRSLSERLMQMSLATSGVKAHPPVTSAPLSPPQPNDLYKNATSSSEFYKAQGPPPSQHSLKGMEHRGPPPEYPFKGVPSQSVVCKSQEPGHFYSEHRLNQPGRTEGQLMRYQHPPEYGAARATQDISSLSLSARNSQPHSPTSSLTAGASSLPLLQSPPSTRLPPGQHLVSNQGDHSAHLSRHQQHLLSSQSHQGDHYRHAQASLTSAQQQPGEAYSAMPRAQQSASYQPMPADPFAMVSRAQQMVEILSDENRNLRQELDGCYEKVARLQKVETEIQRVSEAYENLVKSSSKREALEKAMRNKLEGEIRRMHDFNRDLRDRLETANKQLAEKEYEGSEDTRKTISQLFAKHKENQREKEKLEAELATARSTNEDQRRHIEIRDQALSNAQAKVVKLEEELKKKQVYVDKVEKMQQALVQLQAACEKREQLEHRLRTRLERELESLRIQQRQGNSQPTNASEYNAAALMELLREKEERILALEADMTKWEQKYLEENVMRHFALDAAATVAAQRDTTVISHSPNTSYDTALEARIQKEEEEILMANKRCLDMEGRIKTLHAQIIEKDAMIKVLQQRSRKEPSKTEQLSSMRPAKSLMSISNAGSGLLAHSSTLTGAPIMEEKRDDKSWKGSLGVLLGGDYRVEPVPSTPSPVPPSTPLLSAHSKTGSRDCSTQTERGPESTKTAAVTPISAPMAGPVAAAAPAAAINATAATNTATAATNTTIMVAAAPVAVAAVAAPAAAAATPSPANAAALAAAAAPATSVSAATSVSAANSISPAAPVAPAAVVPPAAPVSPAAAVQIPAAASLTPATVSPTAATATAAVAAATTAAITAAAAAATTAIQVAPATSAPVPSPASIPAPATAQASAPTPTQASTPAPTEPPSPVPTPTPALVQTEGPANPGASSGPRRLSTPNLMCNPDKPDAPAFHSSTLERKTPIQILGQEPDAEMVEYLI
For B1, the binding was “binds”.
